# Laboratory results reported in PubChem BioAssay AID540256 (National Center for Advancing Translational Sciences (NCATS), 2011).
# Screen size: about 300,000 compounds; about 3,700 (1.2%) were called active. The shares of active, inactive and inconclusive entries below differ from those in the screen. Calls follow the shape of the full dose curve; tested in HEK293 cells. A potency beside an inconclusive call is a rough fit, not a confirmed value.
# Experiment: qHTS for Inhibitors of binding or entry into cells for Lassa Virus; also: nearly all actives have a fitted effect of over 50% in size
# Details: Lassa virus pseudotype entry inhibition, cell reporter; series mostly up to 37.9 µM
# Potency is read from the fitted curve at half-maximal effect.
row,SMILES,Potency
1,COc1cccc(C(=O)N/N=C/c2ccc(OC3CSC3)cc2)c1,inactive
2,COc1ccc(C2C(C(=O)N3CCCCC3)CCC(=O)N2c2cc(OC)c(OC)c(OC)c2)cc1 (centres undefined),active: 7.3 µM
3,Cc1ccc(-c2cn3nc(N4CCCC(C(=O)Nc5ccc(F)cc5)C4)sc3n2)cc1 (centres undefined),"inconclusive: 6.31 µM [activator, single point]"
4,O=C(Cn1c(=O)c2c(ncn2C2CCCC2)n(Cc2ccccc2)c1=O)N1CCc2ccccc21,"inconclusive: 29.1 µM [inhibitor, single point]"
5,O=C(NCCc1ccc(F)cc1)C(=O)NCC(c1cccs1)S(=O)(=O)c1ccc(F)cc1 (centres undefined),"inconclusive: 28.2 µM [inhibitor, partial curve, poor fit]"
6,Cc1ccccc1Oc1ccc(S(=O)(=O)NCCC(=O)O)cc1,"inconclusive: 1.16 µM [activator, single point]"
7,CCc1c(C)sc(NC(=O)c2cc(C)on2)c1C#N,inactive
8,CN(C)c1ccc(/C=N/O)cc1,inactive
9,COc1ccc(-c2noc(N3CCC(C(=O)Nc4ccc(F)cc4Cl)CC3)n2)cc1,inactive
10,Cc1ccc(CNC(=O)[C@@H](NC(=O)Cc2ccccc2)C(C)C)cc1,"inconclusive: 20 µM [inhibitor, single point]"
11,CS(=O)(=O)N(CC(=O)N1CCN(c2cccc(Cl)c2)CC1)c1cccc(F)c1,"inconclusive: 17.8 µM [inhibitor, partial curve, poor fit]"
12,Cc1ccc(C2CC2C(=O)NNC(=S)Nc2cccc(Cl)c2)cc1 (centres undefined),"inconclusive: 16.4 µM [inhibitor, single point]"
13,O=C(Nc1ccc(Cl)cc1)c1ccco1,inactive
14,Cc1cccc(Nc2nc(-c3cccs3)cs2)n1,"inconclusive: 35.5 µM [inhibitor, single point]"
15,COc1cccc(CNC(=O)C(CC(C)C)NS(=O)(=O)c2ccc3c(c2)oc(=O)n3C)c1 (centres undefined),inactive
16,O=C(O)CC(CC(=O)N1CCN(C(=O)c2ccco2)CC1)c1ccccc1 (centres undefined),"inconclusive: 0.562 µM [activator, full curve, poor fit]"
17,Cc1c2cnn(CC(=O)N3CCCCC3)c(=O)c2c(C)n1Cc1ccc(F)cc1,"inconclusive: 35.5 µM [activator, single point]"
18,O=C(CSc1nnc(SCc2ccc(Cl)cc2)s1)N1CCN(C(=O)c2ccco2)CC1,"inconclusive: 23.1 µM [inhibitor, partial curve, poor fit]"
19,CCOc1ccc2ncc(S(=O)(=O)c3ccccc3)c(N3CCN(c4ccc(OC)cc4)CC3)c2c1,"inconclusive: 2.31 µM [inhibitor, partial curve]"

# Two of the compounds above, tab-delimited.
row	SMILES	Potency
10	Cc1ccc(CNC(=O)[C@@H](NC(=O)Cc2ccccc2)C(C)C)cc1	inconclusive: 20 µM [inhibitor, single point]
19	CCOc1ccc2ncc(S(=O)(=O)c3ccccc3)c(N3CCN(c4ccc(OC)cc4)CC3)c2c1	inconclusive: 2.31 µM [inhibitor, partial curve]
